# According to the supplement of paper PMC12823440, “Inhibitors supercharge kinase turnover through native proteolytic circuits” (Nature, 2025):
# Chains of the proteins cited; added tags and fusions are not shown. Lines headed by an entry give the natural chain unless they say otherwise; changes in a name come on top.
# UniProt P07947, whole entry, looked up: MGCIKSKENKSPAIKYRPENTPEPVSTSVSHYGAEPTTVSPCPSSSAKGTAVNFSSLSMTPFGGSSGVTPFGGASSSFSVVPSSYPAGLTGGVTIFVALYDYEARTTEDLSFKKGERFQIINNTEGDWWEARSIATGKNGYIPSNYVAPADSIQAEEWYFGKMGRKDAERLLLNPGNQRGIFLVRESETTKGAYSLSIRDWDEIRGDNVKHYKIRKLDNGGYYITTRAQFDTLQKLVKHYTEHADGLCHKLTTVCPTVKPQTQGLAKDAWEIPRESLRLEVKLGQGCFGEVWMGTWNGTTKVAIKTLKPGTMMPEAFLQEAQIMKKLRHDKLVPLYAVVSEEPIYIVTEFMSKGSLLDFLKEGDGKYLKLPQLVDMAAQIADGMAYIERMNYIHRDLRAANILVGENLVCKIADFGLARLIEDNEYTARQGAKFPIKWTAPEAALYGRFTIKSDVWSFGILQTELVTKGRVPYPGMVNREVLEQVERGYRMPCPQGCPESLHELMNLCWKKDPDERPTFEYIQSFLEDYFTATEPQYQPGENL
# UniProt P43403: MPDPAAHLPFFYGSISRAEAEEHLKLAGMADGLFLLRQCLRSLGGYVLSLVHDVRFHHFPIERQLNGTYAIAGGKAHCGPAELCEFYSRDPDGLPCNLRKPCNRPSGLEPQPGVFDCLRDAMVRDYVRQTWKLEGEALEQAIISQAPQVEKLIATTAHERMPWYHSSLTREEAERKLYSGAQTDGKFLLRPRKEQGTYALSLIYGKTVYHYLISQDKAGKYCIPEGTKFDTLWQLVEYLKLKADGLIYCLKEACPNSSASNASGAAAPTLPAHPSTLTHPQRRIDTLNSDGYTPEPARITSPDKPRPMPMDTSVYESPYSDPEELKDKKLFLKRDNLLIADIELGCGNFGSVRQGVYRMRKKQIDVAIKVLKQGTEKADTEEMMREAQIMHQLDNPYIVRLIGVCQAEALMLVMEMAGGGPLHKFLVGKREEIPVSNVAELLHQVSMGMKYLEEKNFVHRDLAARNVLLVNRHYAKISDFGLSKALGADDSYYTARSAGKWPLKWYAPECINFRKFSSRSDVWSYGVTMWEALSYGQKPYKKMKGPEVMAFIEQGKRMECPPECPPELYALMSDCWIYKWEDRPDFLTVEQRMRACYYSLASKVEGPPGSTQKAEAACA
# UniProt P11802: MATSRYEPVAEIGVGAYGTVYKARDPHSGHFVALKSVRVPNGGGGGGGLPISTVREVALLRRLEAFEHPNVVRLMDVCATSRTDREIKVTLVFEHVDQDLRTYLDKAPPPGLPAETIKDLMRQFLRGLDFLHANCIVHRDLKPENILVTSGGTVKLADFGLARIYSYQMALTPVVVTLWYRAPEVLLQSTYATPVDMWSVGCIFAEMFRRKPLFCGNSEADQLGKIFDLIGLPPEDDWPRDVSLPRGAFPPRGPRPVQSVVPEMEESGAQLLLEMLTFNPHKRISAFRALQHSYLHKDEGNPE
# UniProt P50613: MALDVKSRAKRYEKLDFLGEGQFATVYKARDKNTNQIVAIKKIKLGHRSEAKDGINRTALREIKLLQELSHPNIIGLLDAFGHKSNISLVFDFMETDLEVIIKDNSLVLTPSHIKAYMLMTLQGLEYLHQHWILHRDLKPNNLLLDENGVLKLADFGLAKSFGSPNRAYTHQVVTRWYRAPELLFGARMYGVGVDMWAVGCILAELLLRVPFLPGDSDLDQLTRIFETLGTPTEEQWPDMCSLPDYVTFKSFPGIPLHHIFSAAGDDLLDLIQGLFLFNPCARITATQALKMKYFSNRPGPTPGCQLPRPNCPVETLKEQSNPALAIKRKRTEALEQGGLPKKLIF
# UniProt P50750, whole entry: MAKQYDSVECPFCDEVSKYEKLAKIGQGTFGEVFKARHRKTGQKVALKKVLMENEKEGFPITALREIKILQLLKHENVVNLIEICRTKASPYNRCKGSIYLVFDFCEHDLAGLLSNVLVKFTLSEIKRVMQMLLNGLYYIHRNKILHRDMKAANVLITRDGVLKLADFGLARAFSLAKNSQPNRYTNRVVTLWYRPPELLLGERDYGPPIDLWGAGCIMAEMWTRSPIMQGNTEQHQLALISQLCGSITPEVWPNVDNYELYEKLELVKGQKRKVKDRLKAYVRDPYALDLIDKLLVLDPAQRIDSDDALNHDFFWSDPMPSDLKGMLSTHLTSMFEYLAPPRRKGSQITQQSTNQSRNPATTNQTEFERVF
# Where a name gives a salt, the structure may show the parent alone. The list shows a part of the results. Hit calls seldom repeat between salt and free forms of one compound.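 In K562 cells expressing nanoluciferase-fused kinases, luminescence was recorded at 4 h intervals between 2 and 18 h, normalized as percent of control with DMSO at 100% and a positive control at 0%. A significant (2 sigma) signal drop marks a time point as decreased. The authors' rule for a hit is not shown and takes in more than the number of time points.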
# Assays:
# Details in all cases: K562; 2-18 h
# YES1 = YES1 (UniProt P07947); assay: number of time points (of 5) at which kinase-Nluc abundance scored as decreased, DMSO-normalised (count); higher = more persistent destabilization
# ZAK = ZAK (UniProt Q9NYL2); assay: as above
# ZAP70 = ZAP70 (UniProt P43403); assay: as above
# CDK4 = CDK4 (UniProt P11802); assay: number of time points (of 4; 2 h point missing) at which kinase-Nluc abundance scored as decreased, DMSO-normalised (count); higher = more persistent destabilization
# CDK7 = CDK7 (UniProt P50613); assay: as above
# CDK9 = CDK9 (UniProt P50750); assay: as above
SMILES,number of time points (YES1),number of time points (ZAK),number of time points (ZAP70),number of time points (CDK4),number of time points (CDK7),number of time points (CDK9)
Cn1c(N2CCO[C@@H](c3ccc(F)cc3)C2)nc(-c2ccncn2)cc1=O (10 µM),0,0,0,0,0,0
COc1cc2nnc(C(N)=O)c(Nc3ccc(C)cc3F)c2cc1N1CCN(CCO)CC1 (2.5 µM),0,0,0,0,0,0
COc1ccc(CCNCc2ccc(OCc3ccc(Cl)nc3)c(OC)c2)cc1OC [SBE13 (Hydrochloride)] (10 µM),0,0,0,0,0,0
N=C(NC(=N)N1CCCC1)Nc1ccc(OC(F)(F)F)cc1 (10 µM),0,0,0,0,0,0
CNCc1cc(Oc2ccc3c(ccn3C(=O)Nc3cc(C(F)(F)F)n(C)n3)c2)ncn1 [Acrizanib] (10 µM),0,0,0,0,1,0
Fc1ccc(-c2nc3n(c2-c2ccncc2)CCS3)cc1 (10 µM),0,0,0,0,0,0
CS(=O)(=O)c1ccc([C@@H](CC2CCCC2)C(=O)Nc2nccs2)cc1 (10 µM),0,0,0,0,0,0
O=c1cc(-c2ccc(O[C@@H]3O[C@H](CO)[C@@H](O)[C@H](O)[C@H]3O)cc2)oc2cc(O)c([C@@H]3O[C@H](CO)[C@@H](O)[C@H](O)[C@H]3O[C@@H]3OC[C@H](O)[C@H](O)[C@H]3O)c(O)c12 [Vaccarin] (10 µM),0,0,0,0,0,0
CN(C)c1ccc(/C=C2\C(=O)Nc3ccccc32)c2ccccc12 (10 µM),0,0,0,0,1,0
CCNC(=O)Nc1ccc(-c2nc3c(c(N4CCOC[C@@H]4C)n2)CCN(C2COC2)C3)cc1 (2.5 µM),0,0,0,0,0,0
Cn1cc(C2=C(c3ccc(Cl)cc3Cl)C(=O)NC2=O)c2ccccc21 (10 µM),0,0,0,0,0,0
Cc1nc2c(NCc3cccc(S(C)(=O)=O)c3)nccn2c1-c1ccc(O)c(F)c1 (10 µM),0,0,0,0,0,0
CN(C)C(=O)c1cc2cnc(Nc3ccc(N4CCN(CCCCNC(=O)COc5cccc6c5C(=O)N(C5CCC(=O)NC5=O)C6=O)CC4)cn3)nc2n1C1CCCC1 (configuration not stated) (10 µM),0,0,0,0,0,0
CC(C)(C)S(=O)(=O)c1cc2c(Nc3ccc4scnc4c3)ncnc2cc1OCCOP(=O)(O)O (2 µM),0,0,0,0,0,0
Cn1cnc2c(F)c(Nc3ccc(Br)cc3F)c(C(=O)NOCCO)cc21 [Binimetinib] (10 µM),0,0,0,0,0,0
Cc1cccc(-c2nn3c(c2-c2ccnc4ccc(C(N)=O)cc24)CCC3)n1 [Galunisertib] (10 µM),0,0,0,0,0,0
CNc1cc2c(Nc3cccc(Br)c3)ncnc2cn1 (10 µM),0,0,0,0,0,0
O=[N+]([O-])c1ccc(-c2nc(-c3ccc(F)cc3)c(-c3ccncc3)[nH]2)cc1 (10 µM),0,0,0,1,0,0
COc1ccc2cc1Oc1ccc(cc1)C[C@H]1c3cc(c(OC)cc3CCN1C)Oc1c(O)c(OC)cc3c1[C@H](C2)N(C)CC3 [Fangchinoline] (2.5 µM),0,0,0,0,0,0
CC1(C)CN(C(=O)c2ccc(-c3cccc4nc(NC(=O)C5CC5)nn34)cc2)C1 [Solcitinib] (10 µM),0,0,0,0,0,0
CC1(C)C=Cc2c(ccc(C(=O)/C=C/c3ccc(O)cc3)c2O)O1 [4-Hydroxylonchocarpin] (10 µM),0,0,0,0,0,0
O=C(O)/C=C(\CCc1ccc(Cl)cc1)c1ccccc1 (10 µM),0,0,0,0,0,0
O=C(Nc1ccnc(NC(=O)C2CC2)c1)c1c(Cl)cccc1Cl (10 µM),0,0,0,0,0,0
CCCCNc1ncc2c(-c3ccc(F)cc3)nn(CC3CCC(N)CC3)c2n1 (configuration not stated) (2.5 µM),0,0,0,0,0,0
O=C1C=CC2=C3c4cc(O)c(O)cc4CC3(O)COC2=C1O (configuration not stated) [Hematein] (10 µM),0,0,0,0,0,0

SMILES,number of time points (YES1),number of time points (ZAK),number of time points (ZAP70),number of time points (CDK4),number of time points (CDK7),number of time points (CDK9)
COc1cc(Nc2ccnc3ccc(Br)cc23)cc(OC)c1OC (2.5 µM),0,0,0,0,0,0
COc1cc2nc(-c3cc(F)ccc3O)nc(N[C@@H]3CNC[C@H]3C(C)(C)O)c2cc1OC (2.5 µM),0,0,0,0,0,0
C=CC(=O)N1CCC(c2ccc(C(N)=O)c(-c3ccc(Oc4ccccc4)cc3)n2)CC1 [Orelabrutinib] (2.5 µM),0,0,0,0,0,0
CN(C)CCn1cc2cc(NC(=O)c3cccc(C(F)(F)F)n3)c(C(C)(C)O)cc2n1 (10 µM),0,0,0,0,0,0
O=c1c(O)c(-c2ccc(O)c(O)c2)oc2cc(O)c(O)c(O)c12 [Quercetagetin] (10 µM),0,0,0,0,0,0
Nc1ccc(O)c(C(=O)O)c1 [5-Aminosalicylic Acid] (10 µM),0,0,0,0,0,0
Cc1cc(N2CCOCC2)ccc1Nc1nc(NC2CCCCC2)c2[nH]cnc2n1 (10 µM),0,0,0,0,0,0
COCCOc1cnc2ccn([C@H](C)c3nnc4c(F)cc(-c5cnn(C)c5)cn34)c(=O)c2c1 (10 µM),0,0,0,0,0,0
CCCS(=O)(=O)N[C@H]1C[C@@H](N(C)c2ncnc3[nH]ccc23)C1 [Abrocitinib] (10 µM),0,0,0,0,0,0
CCCCC(=O)OCC(=O)[C@]1(O)Cc2c(O)c3c(c(O)c2[C@@H](O[C@H]2C[C@H](NC(=O)C(F)(F)F)[C@H](O)[C@H](C)O2)C1)C(=O)c1c(OC)cccc1C3=O [Valrubicin] (10 µM),0,0,0,0,1,0
CCC[C@H](C)Oc1nc(N)c2[nH]c(=O)n(CCCCCN3CCCCC3)c2n1 (10 µM),0,0,0,0,0,0
C[C@@H]1COC(Nc2ccc3ncnc(Nc4ccc(OCc5nccs5)c(Cl)c4)c3c2)=N1 [Varlitinib] (10 µM),0,0,0,0,0,1
COC(=O)N1CCN(C2CCC(Nc3nc(Nc4cnn(C)c4)nc4ccc(CC#N)nc34)CC2)CC1 (configuration not stated) (10 µM),0,0,0,0,0,0
CCC(F)(F)c1cc(N2CCC(S(C)(=O)=O)CC2)nc2sc(C(N)=O)c(N)c12 (10 µM),0,0,0,0,0,0
COc1ccc(-c2cc(=O)c3c(O)cc(O)cc3o2)cc1-c1c(O)cc(O)c2c(=O)cc(-c3ccc(O)cc3)oc12 [Bilobetin] (2.5 µM),0,0,0,0,0,0
Cc1cccc(CC(=O)N2CCc3c2ccc(-c2cn(C)c4ncnc(N)c24)c3F)n1 (10 µM),0,0,0,0,0,0
O=C(Nc1ccccc1C(=O)NC1CCCCNC1=O)c1cc2ccccc2s1 (configuration not stated) (10 µM),0,0,0,0,0,0
COc1cc(N2CCC(O)CC2)ccc1Nc1nc(Nc2ccccc2S(=O)(=O)C(C)C)c2[nH]cnc2n1 (10 µM),0,0,0,0,0,0
CN(C)c1cc[n+](Cc2ccc(OCCOc3ccc(C[n+]4ccc(N(C)C)cc4)cc3)cc2)cc1 (10 µM),0,0,0,0,0,0
CC(ONC(=O)c1cc(C(F)(F)F)cc(C(F)(F)F)c1)C(=O)Nc1ccc(Cl)cc1 (configuration not stated) (2.5 µM),0,0,0,0,4,4
Cc1cnc(Nc2ccc(F)cc2Cl)nc1-c1c[nH]c(C(=O)N[C@H](CO)c2cccc(Cl)c2)c1 (10 µM),0,0,0,0,0,0
CO[C@]1(C(=O)N[C@@H](C)c2ccc(-n3cc(F)cn3)nc2)CC[C@H](c2nc(C)cc(Nc3cc(C)[nH]n3)n2)CC1 [Pralsetinib] (10 µM),0,0,0,0,0,0
O=C(COc1ccc(Cl)cc1)NC1CCC(NC(=O)COc2ccc(Cl)cc2)CC1 (stereo not drawn) [ISRIB (trans-isomer)] (10 µM),0,0,0,0,0,0
COc1c(O)cc(O)c2c(=O)cc(-c3ccccc3)oc12 [Wogonin] (10 µM),0,0,0,0,0,0
CCc1cc(Nc2nccc(-c3c(-c4ccc(OC)c(C(=O)Nc5c(F)cccc5F)c4)nc4ccccn34)n2)c(OC)cc1N1CCC(N2CCN(S(C)(=O)=O)CC2)CC1 (2.5 µM),0,0,0,0,0,0

SMILES,number of time points (YES1),number of time points (ZAK),number of time points (ZAP70),number of time points (CDK4),number of time points (CDK7),number of time points (CDK9)
CCc1c(C(=O)NNC(=O)[C@H](O)c2cc(F)cc(F)c2)ccc(O)c1C (10 µM),0,0,0,,0,0
CC(=O)O[C@@H]1[C@@H](OC(C)=O)[C@@H](O)[C@H](Oc2c(-c3ccc(O)cc3)oc3cc(O)cc(O)c3c2=O)O[C@H]1C (10 µM),0,0,0,0,0,0
CCOC(=O)c1c(C)[nH]c(C=C2C(=O)Nc3ccccc32)c1C (10 µM),0,0,0,0,0,0
CN1C(=O)[C@@H](NC(=O)c2cc(Cc3ccccc3)on2)COc2ccccc21 (10 µM),0,0,0,0,0,0
COc1cc2nc(NC3CC3)nc(NC3CCN(C(C)C)CC3)c2cc1OC (10 µM),0,0,0,0,0,0
CC1=C(C#N)C(c2ccc3[nH]nc(C)c3c2)C(C#N)=C(C)N1 (10 µM),0,0,0,0,0,0
COc1ccc2nc3ccc(OC)cc3c(SCCCN)c2c1 (10 µM),2,1,0,0,2,0
CC(=O)O/N=C1/C(c2c(O)[nH]c3cc(Br)ccc23)=Nc2ccccc21 [BIO-acetoxime] (10 µM),0,0,0,0,0,0
CC(C)=CCC[C@](C)(O[C@@H]1O[C@H](CO[C@@H]2O[C@H](CO)[C@@H](O)[C@H](O)[C@H]2O)[C@@H](O)[C@H](O)[C@H]1O)[C@H]1CC[C@]2(C)[C@@H]1[C@H](O)C[C@@H]1[C@@]3(C)CC[C@H](O[C@@H]4O[C@H](CO)[C@@H](O)[C@H](O)[C@H]4O[C@@H]4O[C@H](CO)[C@@H](O)[C@H](O)[C@H]4O)C(C)(C)[C@@H]3CC[C@]12C [Ginsenoside Rb1] (10 µM),0,0,0,0,0,0
CC(C)(CCCCCC(O)CCCCCC(C)(C)C(=O)O)C(=O)O [Bempedoic acid] (10 µM),0,0,0,0,0,0
CNC(=O)CN1CCC(Oc2cc3c(Nc4cccc(Cl)c4F)ncnc3cc2OC)CC1 [Sapitinib] (10 µM),0,0,0,0,1,0
O=c1cc(N2CCOCC2)oc2c(-c3cccc4c3sc3ccccc34)cccc12 (10 µM),0,0,0,0,0,0
N#Cc1cc(-c2ccnc(Nc3ccc(N4CCOCC4)cc3)n2)ccc1OC1CCOCC1 (10 µM),0,0,0,0,0,0
Nc1ccc(-c2cccc(C(=O)Nc3cnc4nc(N5CCOCC5)oc4c3)n2)cn1 (10 µM),0,0,0,0,0,0
Cc1cnc(Cl)nc1-c1ccc(N(Cc2ccc(CNC(=O)C(F)F)cc2)C(=O)c2ccc(O)cc2O)cc1 (10 µM),0,0,0,0,0,0
Nc1[nH]nc2nnc(-c3c(-c4ccccc4)nn4ccccc34)cc12 (10 µM),0,0,0,0,0,0
CC(=O)Nc1nc(C)c(-c2cc(C)c3c(c2)CN([C@@H](C)C2CC2)C3=O)s1 (10 µM),0,0,0,0,0,0
S=C(NCc1ccc2c(c1)OCO2)N1CCN(c2ncnc3c2oc2ccccc23)CC1 [Amuvatinib] (2.5 µM),0,0,0,0,0,0
CC1=CC(=O)C(C(C)C)=C/C1=N/OC(=O)c1ccccc1C [Poloxin] (2.5 µM),0,0,0,0,0,0
O=CN1CCN(c2ccc(C=C3C(=O)Nc4ccccc43)cc2)CC1 (10 µM),0,0,0,0,0,0
CO/N=C1/C(c2c(O)[nH]c3cc(Cl)c(Cl)cc23)=Nc2ccccc21 (10 µM),0,0,0,0,0,0
CN1CCN(c2ccc(-n3cc(-c4ccncc4OCC4CCNCC4)cn3)cc2)CC1 [MELK-8a (hydrochloride)] (10 µM),2,1,0,0,3,1
CN1CCN(Cc2ccc(-c3cn(C4CCC(O)CC4)c4nc(NCCC5CC5)ncc34)cc2)CC1 (configuration not stated) (2.5 µM),0,0,0,0,1,0

# In the list so far, three have a thiophene ring, fused or not.
SMILES,number of time points (YES1),number of time points (ZAK),number of time points (ZAP70),number of time points (CDK4),number of time points (CDK7),number of time points (CDK9)
CCC(F)(F)c1cc(N2CCC(S(C)(=O)=O)CC2)nc2sc(C(N)=O)c(N)c12 (10 µM),0,0,0,0,0,0
O=C(Nc1ccccc1C(=O)NC1CCCCNC1=O)c1cc2ccccc2s1 (configuration not stated) (10 µM),0,0,0,0,0,0
O=c1cc(N2CCOCC2)oc2c(-c3cccc4c3sc3ccccc34)cccc12 (10 µM),0,0,0,0,0,0
